Results are given in words; binding and its absence hold for the method and conditions named. Binding seen in cells or lysates may run through a third protein. Binding calls can cover weak binding; strength is not graded here. Each block holds one binder with its values, some of them ahead of it.
Legend:
[1] = biological target: eGFP-TOPBP1 BRCT 0-2 (C-terminal truncation mutant) (human); experiment: co-IP; GFP-Trap agarose from benzonase-treated whole-cell lysates of transfected HEK293TN cells (nocodazole 100 ng/ml 18 h; in some panels asynchronous cells or 7 µM RO-3306 for 30 min); 200 mM NaCl, 0.2% Igepal, pH 7.5, 4 °C; western blot
[2] = biological target: eGFP-TOPBP1 BRCT 0-3 (C-terminal truncation mutant) (human); experiment: as above

binding [1]: binds | binding [2]: binds
B1: MUS81 (endogenous) (protein, UniProt Q96NY9 1-551)
chain: MAAPVRLGRKRPLPACPNPLFVRWLTEWRDEATRSRRRTRFVFQKALRSLRRYPLPLRSGKEAKILQHFGDGLCRMLDERLQRHRTSGGDHAPDSPSGENSPAPQGRLAEVQDSSMPVPAQPKAGGSGSYWPARHSGARVILLVLYREHLNPNGHHFLTKEELLQRCAQKSPRVAPGSARPWPALRSLLHRNLVLRTHQPARYSLTPEGLELAQKLAESEGLSLLNVGIGPKEPPGEETAVPGAASAELASEAGVQQQPLELRPGEYRVLLCVDIGETRGGGHRPELLRELQRLHVTHTVRKLHVGDFVWVAQETNPRDPANPGELVLDHIVERKRLDDLCSSIIDGRFREQKFRLKRCGLERRVYLVEEHGSVHNLSLPESTLLQAVTNTQVIDGFFVKRTADIKESAAYLALLTRGLQRLYQGHTLRSRPWGTPGNPESGAMTSPNPLCSLLTFSDFNAGAIKNKAQSVREVFARQLMQVRGVSGEKAAALVDRYSTPASLLAAYDACATPKEQETLLSTIKCGRLQRNLGPALSRTLSQLYCSYGPLT

binding [1]: binds | binding [2]: binds
B2: ERCC1 (endogenous) (protein, UniProt P07992 1-297)
chain: MDPGKDKEGVPQPSGPPARKKFVIPLDEDEVPPGVAKPLFRSTQSLPTVDTSAQAAPQTYAEYAISQPLEGAGATCPTGSEPLAGETPNQALKPGAKSNSIIVSPRQRGNPVLKFVRNVPWEFGDVIPDYVLGQSTCALFLSLRYHNLHPDYIHGRLQSLGKNFALRVLLVQVDVKDPQQALKELAKMCILADCTLILAWSPEEAGRYLETYKAYEQKPADLLMEKLEQDFVSRVTECLTTVKSVNKTDSQTLLTTFGSLEQLIAASREDLALCPGLGPQKARRLFDVLHEPFLKVP

Source: PMC12661054, “The CIP2A-TOPBP1 axis facilitates mitotic DNA repair via MiDAS and MMEJ” (Nature Communications, 2025)
